# Assay results from PubChem BioAssay AID1259354 (Paczesny and Yang Labs, IUPUI and University of Michigan, 2018).
# By UniProt entry, the sequences of proteins in these tests, tags left out. Where a name states a change or a piece, a line headed by the entry shows the natural chain unless it says otherwise.
# UniProt Q01638: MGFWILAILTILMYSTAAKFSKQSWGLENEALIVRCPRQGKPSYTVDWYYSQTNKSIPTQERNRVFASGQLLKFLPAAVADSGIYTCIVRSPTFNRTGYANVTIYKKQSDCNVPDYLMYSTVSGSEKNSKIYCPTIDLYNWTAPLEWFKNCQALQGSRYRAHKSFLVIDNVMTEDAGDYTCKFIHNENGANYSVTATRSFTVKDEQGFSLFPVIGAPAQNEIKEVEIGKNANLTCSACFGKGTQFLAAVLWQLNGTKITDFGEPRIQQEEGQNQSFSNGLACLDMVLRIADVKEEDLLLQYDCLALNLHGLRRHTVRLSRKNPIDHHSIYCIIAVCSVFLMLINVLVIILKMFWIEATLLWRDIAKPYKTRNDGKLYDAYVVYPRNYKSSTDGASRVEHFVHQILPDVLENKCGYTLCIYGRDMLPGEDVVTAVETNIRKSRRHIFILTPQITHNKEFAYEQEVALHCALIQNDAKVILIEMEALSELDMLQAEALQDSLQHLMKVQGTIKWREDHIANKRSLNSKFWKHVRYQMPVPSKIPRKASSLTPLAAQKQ
# The whole screen tested about 78,000 compounds, of which about 1,800 (2.3%) were called active. The inconclusive results got no clear call from the source; some entries with a clear call stand among them for comparison. Rule as the data show it: active = inhibition above about 30%; inconclusive = mostly about 10% to 28%; inactive = weaker than that.
# Target: Interleukin-1 receptor-like 1 (Homo sapiens) (UniProt Q01638)
# Assay: blocks human ST2 binding to IL-33, primary screen, biochemical, AlphaLISA (AID 1259354)
# Conditions: AlphaLISA ST2-Fc/biotin-IL-33 interaction, 1 h; at 17 µM, stronger effect = higher value
row,Compound,inhibition
1,Cc1nn(-c2cc(Cl)ccc2N)c(=O)c2ccccc12,inconclusive: 22%
2,CC(NC(=O)c1noc2c1CCCC2)c1ccccc1 (stereo not given),inconclusive: 16%
3,O=C1NCC(=O)N2CCN(C(=O)c3cc(-c4ccccc4)no3)CC12 (stereo not given),inactive
4,COc1ccc(Cn2c(Oc3cccc(C)c3)nc3c2c(=O)n(C)c(=O)n3C)cc1,inconclusive: 28%
5,N#Cc1ccc(C(=O)N2C[C@@H]3C[C@H](C2)c2ccc(-c4cccc(C(F)(F)F)c4)c(=O)n2C3)cc1,inconclusive: 16%
6,COc1ccc(CN2CCN(c3cccc(C)c3C)CC2)cc1OC,inconclusive: 24%
7,COc1ccc(-n2ncc3c(NCc4cccnc4)ncnc32)cc1,inconclusive: 11%
8,COc1ccccc1N1CCN(c2ncc(C(=O)NCc3ccc(F)cc3)c3ccccc23)CC1,inactive
9,Nc1nonc1-c1nc2ccccc2n1Cc1cc2c(cc1Cl)OCO2,inconclusive: 24%
10,O=C(C1c2ccccc2Oc2ccccc21)N1CCN=C1SCc1cccnc1,inconclusive: 18%
11,COc1ccc(/C=c2\sc3nnc(-c4ccccc4Cl)n3c2=O)cc1,inactive
12,O=C1c2cccc3cccc(c23)N1S(=O)(=O)c1ccc(Br)cc1,inconclusive: 16%
13,CCOC(=O)c1c(C)n(CC)c2c1cc(O)c1ccccc12,inconclusive: 11%
14,Cc1ccccc1C(CNC(=O)c1cn2cccnc2n1)N(C)C (stereo not given),inactive
15,C=CCn1nc(C(=O)N2CCOCC2)c2c1CCC(NCCc1ccc(Cl)cc1)C2 (stereo not given),inconclusive: 17%
16,CCN(CC)S(=O)(=O)c1ccc(C(=O)N2CCN=C2SCc2ccccc2C)cc1,inactive
17,CC(C)(C)c1ccc(-c2ncccc2O)cc1,inconclusive: 15%
18,CCc1cc2c(ncn3cnnc23)s1,inconclusive: 13%
19,COc1cc(SC)ccc1C(=O)N1CCCc2ccccc21,inconclusive: 13%
20,Cc1ccc(-c2noc(CCC(=O)N3CCCc4ccccc43)n2)cc1,inactive

# An excerpt of these results, bar-delimited.
row | Compound | inhibition
1 | Cc1nn(-c2cc(Cl)ccc2N)c(=O)c2ccccc12 | inconclusive: 22%
6 | COc1ccc(CN2CCN(c3cccc(C)c3C)CC2)cc1OC | inconclusive: 24%

# (next part)

row,Compound,inhibition
1,O=C(C1CC1)N1CCc2cc(S(=O)(=O)NC3CCCc4ccccc43)ccc21 (stereo not given),inconclusive: 21%
2,Cc1ccc2c(-c3cc4c(n(CC5CC5)c3=O)CCN(C(=O)c3ccoc3)C4)cccc2n1,inactive
3,Fc1ccc(CN2CC[C@H](c3nnc(-c4ccccc4)o3)C2)cc1F,inactive
4,CCOc1ccc(NC(=O)c2c(NC(=O)CNCCN3CCOCC3)sc3c2CCC3)cc1,inconclusive: 28%
5,COc1ccccc1-n1c(SCc2ccccc2C)nc2c(c1=O)SCC2,inconclusive: 20%
6,c1nc(Nc2ccc(N3CCCCC3)cc2)c2c3c(sc2n1)CCCC3,active: 58%
7,COc1ccccc1Nc1nc2nonc2nc1N1CCCCC1C (stereo not given),inconclusive: 29%
8,CC(C)NC(=O)NC[C@H]1O[C@@H](CO)[C@@H](O)[C@H]1N1CCN(c2ccc(F)cc2)CC1,inconclusive: 14%
9,CCOC(=O)c1cc(-c2c[nH]c3ccccc23)no1,inconclusive: 25%
10,COc1ccccc1N1CCN(C(=O)c2cccc([N+](=O)[O-])c2)CC1,inconclusive: 14%
11,COc1cc(CN2CCN(C(=O)c3cc(OC)c(OC)c(OC)c3)CC2)cc(OC)c1,inactive
12,COc1ccc(C2CC(c3ccc(C)cc3)=NN2S(=O)(=O)c2ccccc2)cc1 (stereo not given),inactive
13,NC(=O)c1cc([N+](=O)[O-])ccc1N1CCCCC1,inconclusive: 13%
14,O=C(Cc1ccc(-n2c(=O)[nH]c3ccsc3c2=O)cc1)NCc1ccccc1Cl,inconclusive: 22%
15,CCOC(=O)c1sc2ncnc(N3CCN(c4ccccc4F)CC3)c2c1C,inconclusive: 13%
16,COc1ccccc1N=Cc1c(O)ccc2oc3c(c12)CCCC3,active: 31%
17,Cc1cc(C(=O)Nc2ccc(Br)c3cccnc23)ccc1[N+](=O)[O-],inconclusive: 13%
18,CCn1c(C(=O)O)c(CC(=O)NCCN(C)C)c2ccccc21,inactive
19,C=CCOC(=O)C1=C(C)N=C2SCCC(=O)N2C1c1ccc(C(C)C)cc1 (stereo not given),inactive
20,COc1ccccc1N(CC(=O)Nc1cccc([N+](=O)[O-])c1)S(=O)(=O)c1ccccc1,inconclusive: 29%

row,Compound,inhibition
1,COc1ccccc1C(=O)NCCn1cc(SCc2ccccc2F)c2ccccc21,inconclusive: 11%
2,CN(C)CCN1C(=O)C2C3c4ccccc4C([N+](=O)[O-])(c4ccccc43)C2C1=O (stereo not given),inconclusive: 11%
3,CCC1SC2=NC(C)=C(C(=O)OC)C(c3ccc(Br)cc3)N2C1=O (stereo not given),inconclusive: 11%
4,COc1cc(NC(=O)c2ccncc2)c(OC)cc1Cl,inconclusive: 19%
5,COc1cc(O)c(C(C)=O)c(CC(=O)O)c1,inconclusive: 10%
6,Cc1cc(C)cc(-n2cc(-c3ccc(F)cc3)[nH]c2=O)c1,inconclusive: 25%
7,N#C/C(=C/c1cn(Cc2ccc(Cl)cc2Cl)c2ccccc12)C(=O)NCC1CCCO1 (stereo not given),active: 32%
8,CCN(Cc1ccc(Cl)cc1)C(=O)Cc1nn[nH]n1,inconclusive: 28%
9,O=C1[C@H]2C3c4ccccc4C(CO)(c4ccccc43)[C@H]2C(=O)N1c1ccc([N+](=O)[O-])cc1,inconclusive: 10%
10,Cc1ccc(O)c(NC(=O)CCCn2cnc([N+](=O)[O-])n2)c1,inconclusive: 14%
11,c1ccc(-c2nnc([C@H]3CCN(Cc4cccnc4)C3)o2)cc1,inconclusive: 11%
12,COc1cc(NC2CCS(=O)(=O)CC2)ncn1,inconclusive: 16%
13,CCc1ccc2oc(-c3ccc(NC(=O)c4ccc5c(c4)OCCO5)cc3)nc2c1,inconclusive: 10%
14,Cc1cc(C)c2nccc(-c3ccncc3)c2c1,inconclusive: 11%
15,CCOC(=O)c1c(NC(=O)c2cccs2)sc2c1CCC(CC)C2 (stereo not given),inactive
16,O=C(c1cccs1)N1N=C(c2cccs2)CC1c1cccc([N+](=O)[O-])c1 (stereo not given),inconclusive: 28%
17,O=C(NCc1cccnc1)C1CCN(C2CCN(Cc3c(F)ccc(F)c3F)CC2)CC1,inactive
18,CCn1c(CC2CCNCC2)nn(CCC2CCCCN2C)c1=O (stereo not given),inactive
19,COC(=O)c1cccc(C(=O)N2CCC(C(Cc3ccc(F)cc3F)N(C)C(=O)C3CC3)CC2)c1 (stereo not given),inconclusive: 11%
20,Cc1cccn2c(=O)c3cc(C(=O)NCc4cccnc4)c(=N)n(CCCn4ccnc4)c3nc12,inactive
